Values joined by “and” are separate entries in the source; they are usually repeats but may differ in a detail not shown here. Equal entries are not always repeated. Non-standard residues stand in square brackets, D forms with d. Residues, ends and D or L forms follow the SMILES beside them. pS = N[C@@H](COP(=O)(O)O)C(=O)O

The nature of data set [1]: XPS analysis of peptide on TiO2 slides (early stages of mineralization, 40 min in SBF). How it is done: (§1) Revised simulated body fluids (SBF) solution was prepared according to Oyane et. al., with the following ion concentrations: Na^+ 142 mM, K^+ 5 mM, Mg^2+1.5 mM, Ca^2+ 2.5 mM, Cl^− 103 mM, HCO3^− 27 mM, HPO4^2− 1 mM SO4^2− 0.5 mM.
TiO2 Surface Preparation: as described in Catherine D. Reyes, Timothy A. Petrie, Kellie L. Burns, Zvi Schwarts and Andres J. Garcia. (2007) Biomaterials 28(21): 3228-323.
Surfaces were prepared by Thermal Evaporation—microscope slides were coated with pure 99.9% Ti particles to 40 nm thickness. Oxide layer was promoted by heating the slides for 8 hours on 180° C.
XPS Analysis of Peptide on TiO2 (Early Stages of Mineralization):
Shown are the XPS atomic ratios of TiO2, peptide diluted in TBS bonded on TiO2, peptide diluted in BCS bonded on TiO2 and all the slides after 40 minutes in SBF1.5 (c).

Data set [2] is described as follows: ICP-MS of calcium and phosphate in peptide coated samples soaked in SBF for 11 days. The settings on record: 11 days in SBF. How it is done: FIG. 9. Calcium and phosphate ion concentration detected in peptide coated samples that were soaked in SBF for 11 days. The samples were withdrawn from SBF after 11 days and immediately washed with ethanol to remove residual solution. The dried samples were then soaked in 0.1 M HCl to dissolve all the mineral and samples of the acidic solution were measured by ICP for calcium, phosphate and potassium ions (the latter were in negligible concentrations). […] Noteworthy, in these experiments the titanium oxide surface itself induces mineralization too. […] In addition, phosphate ions from the solution may coordinatively bind to the titanium and induce mineralization. Nevertheless, the peptide coating is expected to improve the binding strength between the mineralized layer and the titanium substrate.
as §1
Inductively Coupled Plasma Mass Spectrometry (ICP-MS) Results
The results are illustrated in FIG. 9 and Table 4 herein below.

Data set [3] in a line: Adsorption isotherm onto TiO2 particles, Sips equation fitting. The data set is classed as binding. To be noted: 10 mM TBS pH 7.4; for α, Sips constant of binding energy distribution (row 'A' of Table 5): Sips fit; for nominal area each peptide occupies (inverse of Smax): on TiO2 particles. How it is done:
The adsorption of all three peptides to TiO2 particles were measured with peptides solution in a range of concentrations from 0.002 to 0.524 mM in 10 mM TBS solution. TiO2 particles were suspended in TBS 10 mM, pH 7.4, to a final concentration of 1.8 mg/ml. To each test tube containing 0.5 ml of peptide at different concentrations, 0.5 ml of TiO2 particles solution was added. The samples were continuously mixed with a tube rotator for 1 h at room temperature. To precipitate the TiO2 particles, the test tubes were centrifuged at 5000 rpm for 3 minutes and the absorption of the supernatant was measured at 280 nm using a microplate-reader (BioTek instruments). Peptide concentration was determined based on calibration curve of each peptide prepared in TBS solution. In order to describe the adsorption of molecules on TiO2 particles surface the sips equation, also known as the Langmuir-Freundlich equation (1), was used:
[formula] where S is the amount of adsorbed molecules (mol m^−2), Smax is the maximum amount of molecules adsorbed (mol m^−2), C is their concentration is solution at equilibrium (mM), k is the association coefficient (M^−1) and α is the constant representing this distribution.^30
Peptide adsorption and desorption conditions were characterized by HPLC. A column was packed with micrometer size particles of the TiO2 anatase phase (see Materials and Methods). Tris buffer saline (TBS), pH 7.4, served as a loading buffer. […] The salt ions expected to have an electrostatic repulsion screening effect and make negatively charge TiO2 surface more accessible for the negatively charged peptides to generate coordinative bonds that require short range interaction distance^42. The elutions used conditions were consecutive linear gradients of sodium bicarbonate (0-200 mM, pH7.4) and NaOH (0-0.1M). The bicarbonate ions may bind by coordinative bonds to the oxide surface, similar to the way phosphate ions can be bound to the surface. Yet the binding strength of the bicarbonate ions to TiO2 is weaker than that of phosphate ions^43. […] The tailing peaks shape of pSer and β-cpSer together with the small eluted volume during the void volume of the column probably indicates on impurity of the peptides' powders or secondary interactions of the peptides with the column. Those secondary interactions may occur as a result of different orientation of the phosphate groups at the TiO2 binding surface. […] Therefore, adsorption isotherm to micro-size titanium oxide particles was performed in order to characterize the extent of interactions between the peptides and the oxide (FIGS. 15A-C). The data was fitted to Sips equation (eq.1). Sips isotherms is a combined form of Langmuir and Freundlich expressions and it relies on the assumption that there are a distribution of binding energies of the sites of a surface, this distribution is represented by α. When α→1 Sips equation reduces to Langmuir equation and represents binding of a monolayer with homogenous binding energy and small α values together with low concentrations reduces Sips equation to Freundlich equation with a potential to saturation at high concentrations (unlike the original Freundlich equation). Therefore, fitting peptides adsorption isotherm data to Sips equation give us an insight into their binding energy distributions. Fitting the collected data to Sips equation (continuous line at FIGS. 15A-C and Table 5 herein below) yields α=0.8 for pSer peptide and α=0.4 for control peptides, cpSer and β-cpSer. Table 5 contains the Sips equation values for the three peptides and the standard deviation values (SD).

Where [4] appears, read: peptide in BCS bonded on TiO2, after 40 min in SBF.
Setting [5] is: peptide in TBS bonded on TiO2, after 40 min in SBF.

Regarding `O=C(O)CC[C@H](NC(=O)[C@H](CCC(=O)O)NC(=O)[C@H](CCC(=O)O)NC(=O)[C@H](CCC(=O)O)NC(=O)[C@H](CCC(=O)O)NC(=O)CNC(=O)CNC(=O)CNC(=O)[C@H](Cc1c[nH]c2ccccc12)NC(=O)[C@H](COP(=O)(O)O)NC(=O)[C@H](Cc1c[nH]c2ccccc12)NC(=O)[C@H](COP(=O)(O)O)NC(=O)[C@@H]1CCCN1)C(=O)O` [PpSer, Pro-pSer-Trp-pSer-Trp-(Gly)3-(Glu)5] (H-P[pS]W[pS]WGGGEEEEE-OH; N-terminus and C-terminus assumed), the “XPS atomic ratio C/P” value in data set [1] (setting [4]) is 132.06; in data set [1] (peptide in BCS bonded on TiO2 slides, before SBF), 181.28; in data set [1] (setting [5]), 36.84; in data set [1] (peptide in TBS bonded on TiO2 slides, before SBF) it was 29.95. The “XPS atomic ratio Ca/P” value in data set [1] (setting [4]) worked out at 1.80; in data set [1] (setting [5]) it was 0.835. Moreover, in data set [2] (surface + peptide TBS compared to surface + peptide BCS), the “amounts of Ca,P by ICP” value is “lower amounts of Ca,P”. Also, the “Ca/P ratio by ICP” value came out at 1.46 in data set [2] (surface + peptide coated in CBS) and 1.38 in data set [2] (surface + peptide coated in TBS).
For the molecule “Pro-Ser(phos)-Phe-Ser(phos)-Trp-(Gly)3-(Glu)5 (PSFSWGGGEEEEE; phosphoserines; (2)..(2) Phosphorylated residue; (4)..(4) Phosphorylated residue) [pSer]”, in data set [3], the “α, Sips constant of binding energy distribution (row 'A' of Table 5)” value (“α, Sips constant” for short) is 0.8 and 0.79; the “nominal area each peptide occupies (inverse of Smax)” value (“nominal area each peptide occupies” for short) is approximately 498 A^2 molec^−1.
As for “Pro-Ser(phos)-Ser(phos)-Phe-Trp-(Gly)3 (PSSFWGGG; phosphoserines; (2)..(3) Phosphorylated residue) [β-cpSer]”, in data set [3], the “α, Sips constant” value was 0.4 and 0.42; the “nominal area each peptide occupies” value was approximately 221 A^2 molec^−1.
As for “Pro-pSer-Phe-pSer-Trp-(Gly)3 (PSFSWGGG; phosphoserines; (2)..(2) Phosphorylated residue; (4)..(4) Phosphorylated residue) [cpSer, control peptide lacking the stretch of the Glu residues]”, in data set [3], the “α, Sips constant” value was 0.4 and 0.41; the “nominal area each peptide occupies” value is recorded as approximately 422 A^2 molec^−1.

These data come from US10213527B2, “Functionalized titanium binding peptides and implants coated with same” (Ben-Gurion University of the Negev Research and Development …, priority 2012, dated 2019).
